Experiment: general procedure: peptide synthesis; MBHA resin (Anaspec); HBTU

Substance “stapled [Val^1-Leu^22]-[Cys^23-Gly^40]-[Cys^41-Lys^58] peptide” has a step yield (coupling step) of 34%.
stapled [Val^1-Lys^58] peptides showed a step yield (late stage modification step) of 78.3%.

Reference: US9018172B2 (Massachusetts Institute of Technology, priority 2012, dated 2015)
